No constants are given. Whether binding was seen depends on the method and setting. In cells and extracts the contact can be indirect. Binding can be weak; no strength is given.
B1: mitotic kinesin-like protein 1 (MKLP1) (protein, UniProt Q02241 1-960)
chain: MKSARAKTPRKPTVKKGSQTNLKDPVGVYCRVRPLGFPDQECCIEVINNTTVQLHTPEGYRLNRNGDYKETQYSFKQVFGTHTTQKELFDVVANPLVNDLIHGKNGLLFTYGVTGSGKTHTMTGSPGEGGLLPRCLDMIFNSIGSFQAKRYVFKSNDRNSMDIQCEVDALLERQKREAMPNPKTSSSKRQVDPEFADMITVQEFCKAEEVDEDSVYGVFVSYIEIYNNYIYDLLEEVPFDPIKPKPPQSKLLREDKNHNMYVAGCTEVEVKSTEEAFEVFWRGQKKRRIANTHLNRESSRSHSVFNIKLVQAPLDADGDNVLQEKEQITISQLSLVDLAGSERTNRTRAEGNRLREAGNINQSLMTLRTCMDVLRENQMYGTNKMVPYRDSKLTHLFKNYFDGEGKVRMIVCVNPKAEDYEENLQVMRFAEVTQEVEVARPVDKAICGLTPGRRYRNQPRGPVGNEPLVTDVVLQSFPPLPSCEILDINDEQTLPRLIEALEKRHNLRQMMIDEFNKQSNAFKALLQEFDNAVLSKENHMQGKLNEKEKMISGQKLEIERLEKKNKTLEYKIEILEKTTTIYEEDKRNLQQELETQNQKLQRQFSDKRRLEARLQGMVTETTMKWEKECERRVAAKQLEMQNKLWVKDEKLKQLKAIVTEPKTEKPERPSRERDREKVTQRSVSPSPVPLSSNYIAQISNGQQLMSQPQLHRRSNSCSSISVASCISEWEQKIPTYNTPLKVTSIARRRQQEPGQSKTCIVSDRRRGMYWTEGREVVPTFRNEIEIEEDHCGRLLFQPDQNAPPIRLRHRRSRSAGDRWVDHKPASNMQTETVMQPHVPHAITVSVANEKALAKCEKYMLTHQELASDGEIETKLIKGDIYKTRGGGQSVQFTDIETLKQESPNGSRKRRSSTVAPAQPDGAESEWTDVETRCSVAVEMRAGSQLGPGYQHHAQPKRKKP
B2: anillin (protein, UniProt Q9NQW6 1-1124)
chain: MDPFTEKLLERTRARRENLQRKMAERPTAAPRSMTHAKRARQPLSEASNQQPLSGGEEKSCTKPSPSKKRCSDNTEVEVSNLENKQPVESTSAKSCSPSPVSPQVQPQAADTISDSVAVPASLLGMRRGLNSRLEATAASSVKTRMQKLAEQRRRWDNDDMTDDIPESSLFSPMPSEEKAASPPRPLLSNASATPVGRRGRLANLAATICSWEDDVNHSFAKQNSVQEQPGTACLSKFSSASGASARINSSSVKQEATFCSQRDGDASLNKALSSSADDASLVNASISSSVKATSPVKSTTSITDAKSCEGQNPELLPKTPISPLKTGVSKPIVKSTLSQTVPSKGELSREICLQSQSKDKSTTPGGTGIKPFLERFGERCQEHSKESPARSTPHRTPIITPNTKAIQERLFKQDTSSSTTHLAQQLKQERQKELACLRGRFDKGNIWSAEKGGNSKSKQLETKQETHCQSTPLKKHQGVSKTQSLPVTEKVTENQIPAKNSSTEPKGFTECEMTKSSPLKITLFLEEDKSLKVTSDPKVEQKIEVIREIEMSVDDDDINSSKVINDLFSDVLEEGELDMEKSQEEMDQALAESSEEQEDALNISSMSLLAPLAQTVGVVSPESLVSTPRLELKDTSRSDESPKPGKFQRTRVPRAESGDSLGSEDRDLLYSIDAYRSQRFKETERPSIKQVIVRKEDVTSKLDEKNNAFPCQVNIKQKMQELNNEINMQQTVIYQASQALNCCVDEEHGKGSLEEAEAERLLLIATGKRTLLIDELNKLKNEGPQRKNKASPQSEFMPSKGSVTLSEIRLPLKADFVCSTVQKPDAANYYYLIILKAGAENMVATPLASTSNSLNGDALTFTTTFTLQDVSNDFEINIEVYSLVQKKDPSGLDKKKKTSKSKAITPKRLLTSITTKSNIHSSVMASPGGLSAVRTSNFALVGSYTLSLSSVGNTKFVLDKVPFLSSLEGHIYLKIKCQVNSSVEERGFLTIFEDVSGFGAWHRRWCVLSGNCISYWTYPDDEKRKNPIGRINLANCTSRQIEPANREFCARRNTFELITVRPQREDDRETLVSQCRDTLCVTKNWLSADTKEERDLWMQKLNQVLVDIRLWQPDACYKPIGKP

Protein sequences, listed by entry. Tags and fused reporters are not part of them. Lines headed by an entry give the natural chain unless they say otherwise; changes in a name come on top.
UniProt O60331: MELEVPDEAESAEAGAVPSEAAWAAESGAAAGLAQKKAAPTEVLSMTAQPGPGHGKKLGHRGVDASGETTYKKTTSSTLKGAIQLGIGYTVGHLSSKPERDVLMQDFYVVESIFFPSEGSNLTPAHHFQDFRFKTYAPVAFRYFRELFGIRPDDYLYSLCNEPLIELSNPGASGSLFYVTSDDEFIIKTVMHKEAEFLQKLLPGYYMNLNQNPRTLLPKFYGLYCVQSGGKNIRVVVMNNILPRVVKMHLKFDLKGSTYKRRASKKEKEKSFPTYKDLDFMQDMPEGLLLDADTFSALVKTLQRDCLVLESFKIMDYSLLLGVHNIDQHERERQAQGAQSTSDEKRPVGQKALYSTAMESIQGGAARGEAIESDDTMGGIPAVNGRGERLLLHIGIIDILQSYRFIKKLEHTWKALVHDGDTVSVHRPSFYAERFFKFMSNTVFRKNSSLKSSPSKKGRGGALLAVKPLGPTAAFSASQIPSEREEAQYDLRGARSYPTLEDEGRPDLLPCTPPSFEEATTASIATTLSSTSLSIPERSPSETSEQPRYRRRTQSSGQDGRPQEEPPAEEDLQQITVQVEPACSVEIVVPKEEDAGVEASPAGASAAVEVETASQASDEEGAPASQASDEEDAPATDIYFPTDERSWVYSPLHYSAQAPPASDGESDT
UniProt O14578: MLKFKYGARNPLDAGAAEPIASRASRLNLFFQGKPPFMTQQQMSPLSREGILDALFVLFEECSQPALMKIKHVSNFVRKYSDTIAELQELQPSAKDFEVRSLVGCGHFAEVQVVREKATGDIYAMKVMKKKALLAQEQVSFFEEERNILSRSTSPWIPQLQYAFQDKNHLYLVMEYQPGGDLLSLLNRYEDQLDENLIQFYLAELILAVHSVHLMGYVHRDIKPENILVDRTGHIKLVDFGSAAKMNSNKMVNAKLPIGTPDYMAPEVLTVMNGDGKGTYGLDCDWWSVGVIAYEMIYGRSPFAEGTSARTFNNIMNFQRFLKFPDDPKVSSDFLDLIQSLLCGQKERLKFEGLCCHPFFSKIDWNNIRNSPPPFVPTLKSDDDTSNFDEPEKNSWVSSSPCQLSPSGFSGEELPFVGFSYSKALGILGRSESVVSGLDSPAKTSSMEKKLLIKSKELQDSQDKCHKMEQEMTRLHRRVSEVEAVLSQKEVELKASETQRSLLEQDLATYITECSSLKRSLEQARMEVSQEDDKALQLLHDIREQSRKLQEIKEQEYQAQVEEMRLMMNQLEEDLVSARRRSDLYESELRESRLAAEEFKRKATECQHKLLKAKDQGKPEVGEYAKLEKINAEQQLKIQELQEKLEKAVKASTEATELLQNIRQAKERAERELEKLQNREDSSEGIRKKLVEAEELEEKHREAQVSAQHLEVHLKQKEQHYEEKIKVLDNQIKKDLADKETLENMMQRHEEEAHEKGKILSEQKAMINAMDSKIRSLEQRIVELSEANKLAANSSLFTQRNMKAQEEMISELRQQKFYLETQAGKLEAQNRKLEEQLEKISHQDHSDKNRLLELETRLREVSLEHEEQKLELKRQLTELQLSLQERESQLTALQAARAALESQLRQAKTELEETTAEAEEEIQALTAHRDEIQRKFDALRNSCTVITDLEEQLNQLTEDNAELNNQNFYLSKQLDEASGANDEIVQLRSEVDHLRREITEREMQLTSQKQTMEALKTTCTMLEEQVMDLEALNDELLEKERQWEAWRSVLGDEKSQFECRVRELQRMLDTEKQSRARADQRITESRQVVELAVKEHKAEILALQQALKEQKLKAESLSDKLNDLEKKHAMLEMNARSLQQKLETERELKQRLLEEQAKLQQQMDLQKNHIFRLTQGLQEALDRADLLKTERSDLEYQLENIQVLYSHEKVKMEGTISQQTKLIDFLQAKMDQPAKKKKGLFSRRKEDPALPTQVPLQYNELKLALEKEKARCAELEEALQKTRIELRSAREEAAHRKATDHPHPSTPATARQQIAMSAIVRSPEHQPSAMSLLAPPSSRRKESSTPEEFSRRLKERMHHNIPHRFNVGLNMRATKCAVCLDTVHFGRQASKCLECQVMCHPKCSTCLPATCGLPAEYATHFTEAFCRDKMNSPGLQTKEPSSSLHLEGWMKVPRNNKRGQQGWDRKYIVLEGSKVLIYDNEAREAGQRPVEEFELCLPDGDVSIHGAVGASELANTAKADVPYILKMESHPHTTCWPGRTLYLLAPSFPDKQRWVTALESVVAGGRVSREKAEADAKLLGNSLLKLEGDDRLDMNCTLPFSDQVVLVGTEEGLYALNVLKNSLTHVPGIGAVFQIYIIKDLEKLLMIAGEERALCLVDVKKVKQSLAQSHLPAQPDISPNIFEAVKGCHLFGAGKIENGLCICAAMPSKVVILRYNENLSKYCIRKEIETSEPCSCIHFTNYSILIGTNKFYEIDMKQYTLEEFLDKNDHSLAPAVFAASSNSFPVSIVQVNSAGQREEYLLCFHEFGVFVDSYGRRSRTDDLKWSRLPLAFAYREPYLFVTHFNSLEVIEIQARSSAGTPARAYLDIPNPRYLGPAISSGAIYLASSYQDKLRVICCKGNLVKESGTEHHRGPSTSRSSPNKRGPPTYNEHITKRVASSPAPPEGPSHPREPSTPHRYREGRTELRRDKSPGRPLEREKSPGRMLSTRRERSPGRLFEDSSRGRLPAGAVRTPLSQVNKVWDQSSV

Experiments:
[1] = molecular target: endogenous PIPKIγ (HeLa) (human (endogenous in HeLa)) (UniProt O60331); assay: co-IP; endogenous PIPKIγ immunoprecipitated (rabbit anti-PIPKIγ on protein A/G magnetic beads, 3-4 h at 4 °C) from lysates of HeLa cells in cytokinesis or arrested in S-phase by thymidine; Western blot
[2] = molecular target: T1, endogenous SEPT2 (HeLa) (human (endogenous in HeLa)) (UniProt Q15019); assay: co-IP; endogenous SEPT2 immunoprecipitated (rabbit anti-SEPT2 on protein A/G magnetic beads, 3-4 h at 4 °C) from lysates of HeLa cells in cytokinesis or arrested in S-phase by thymidine; Western blot
T1 sequence: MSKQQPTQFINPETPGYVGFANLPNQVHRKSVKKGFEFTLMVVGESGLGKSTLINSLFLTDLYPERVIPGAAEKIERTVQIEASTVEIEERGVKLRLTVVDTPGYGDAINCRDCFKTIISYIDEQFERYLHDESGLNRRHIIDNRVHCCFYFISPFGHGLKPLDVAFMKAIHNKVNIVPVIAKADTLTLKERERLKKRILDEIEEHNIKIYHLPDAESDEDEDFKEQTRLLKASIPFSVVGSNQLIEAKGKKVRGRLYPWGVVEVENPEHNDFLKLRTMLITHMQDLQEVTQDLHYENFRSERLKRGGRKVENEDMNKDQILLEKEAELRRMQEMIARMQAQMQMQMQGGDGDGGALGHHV

Row | Molecule | binding [1] | binding [2]
1 | citron kinase (from UniProt O14578 1-2027) | binds | –
2 | endogenous PIPKIγ (HeLa) (from UniProt O60331-3) (enzyme) | – | binds
3 | B1 | binds | –
4 | B2 | no binding | –

— publication PMC12886786
